Test results as given in PMC2852416, “Modular Insulators: Genome Wide Search for Composite CTCF/Thyroid Hormone Receptor Binding Sites”.

System: GST
Assay: EMSA
Conditions: PBS pH 7.4, 5 mM MgCl2, 1 mM ZnCl2, 1 mM DTT, 0.1% NP-40, 10% glycerol, 200 ng/ul pdIdC, 25-100 ng/ul salmon sperm DNA, 20 min room temperature; 5% PAGE in TAE at 4 C; recombinant protein; label: 32P

Q: Does “ACCCGAGGGCACCAGAGGGCACGAGA (double strand) [COMT DR4]” bind?
A: Result: no binding

System: GST-CTCF-ZF
Assay: EMSA
Conditions: Zn2+; PBS pH 7.4, 5 mM MgCl2, 1 mM ZnCl2, 1 mM DTT, 0.1% NP-40, 10% glycerol, 200 ng/ul pdIdC, 25-100 ng/ul salmon sperm DNA, 20 min room temperature; 5% PAGE in TAE at 4 C; recombinant protein; protein details: GST; label: 32P

Q: Does “TGAACCTTGCCCCTCTGCAAACACAAGGGGGCGATGGTGGCACTCCAAGCAA / TTGCTTGGAGTGCCACCATCGCCCCCTTGTGTTTGCAGAGGGGCAAGGTT [COMT CTS2]” bind?
A: Result: binds

Q: Does “AGCAAGTACAGTATCTGTCTGCCCCCTAGTGTAAGAGTCCTCGCTGCCTAAA (double strand) [NR2F1 CTS]” bind?
A: Result: binds

Q: Does “GGTTCCTCGAATCACACATGCGGCGCCCCCTGGTGGGGAGACCTTTCGGT (double strand) [ESRRA CTS]” bind?
A: Result: binds

Q: Does “GAAGGCGTGCCCATGGCAACCGCTAGGTGGTGCCCGTACACCACCAGCCA (double strand) [BCL3 CTS]” bind?
A: Result: binds

Q: Does “CCTGCTCTGTCTACCCGAGGGCACCAGAGGGCACGAGAAGGCTGGCTCCCTG (double strand) [COMT CTS1]” bind?
A: Result: binds

Q: Does “GGTCACTGGCCTCCCTCCCGCCCCCTTCAGGACATTCTACTATCTTCTTA (double strand) [LMNA CTS]” bind?
A: Result: binds

Q: Does “CCCATTACCAACTCCTAGTGCCCCCCTGTGGCCACTTTGAGAATCACACT (double strand) [PER1 CTS]” bind?
A: Result: binds

Q: Does “AACCATGCTCAGCCACAGTGGCCTCTGCAGGTTGAGGAGGGATTCGCTGT (double strand) [PCK1 CTS]” bind?
A: Result: binds

Q: Does “AACAGCCATAAAACGCCGCCCAGAAGGGGGCAGTGACCAAAAGCACGTTC (double strand) [LRP1 CTS]” bind?
A: Result: binds

System: GST-CTCF-ZF
Assay: competition with a labelled probe
Conditions: unlabelled competitor against F1 probe, Zn2+; PBS pH 7.4, 5 mM MgCl2, 1 mM ZnCl2, 1 mM DTT, 0.1% NP-40, 10% glycerol, 200 ng/ul pdIdC, 25-100 ng/ul salmon sperm DNA, 20 min room temperature; 5% PAGE in TAE at 4 C; recombinant protein; protein details: GST

Q: Does “CTAGATGAAGAAATTGAGATTTCTACTGGATAGCTATGGTATTTACGTGTCTA / AGCTTAGACACGTAAATACCATAGCTATCGAGTAGAAATCTCAATTTCTTCAT [F1mut CTS]” bind?
A: Result: no binding

Construct, isoform or probe ends are uncertain for at least one entry. For some assays here: No signal at the amounts used counts as a negative. For some assays here: At least one verdict was read from the data and is not stated in words by the source.
